This experiment deals with FLAG-tagged HPV-31 E2 (HPV-31) (UniProt P17383). The experiment is described as follows: co-IP; HEK293TT cells co-transfected with FLAG-E2 and GFP-kinase constructs; FLAG-E2 immunoprecipitated with FLAG (M2) antibodies; complexes blotted with FLAG and GFP antibodies.

Protein sequences, listed by entry. Tags and fused reporters are not part of them.
UniProt P17383: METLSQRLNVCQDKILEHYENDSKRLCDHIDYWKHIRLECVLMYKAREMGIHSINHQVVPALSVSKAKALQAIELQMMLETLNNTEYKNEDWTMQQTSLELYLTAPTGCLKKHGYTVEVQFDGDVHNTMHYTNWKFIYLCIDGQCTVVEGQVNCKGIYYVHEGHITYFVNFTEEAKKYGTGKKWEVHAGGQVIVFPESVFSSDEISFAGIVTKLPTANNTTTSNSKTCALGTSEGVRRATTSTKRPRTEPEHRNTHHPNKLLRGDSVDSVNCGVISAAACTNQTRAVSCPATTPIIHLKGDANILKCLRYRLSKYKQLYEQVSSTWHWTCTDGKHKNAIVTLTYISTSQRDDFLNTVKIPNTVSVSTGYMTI
UniProt Q14289: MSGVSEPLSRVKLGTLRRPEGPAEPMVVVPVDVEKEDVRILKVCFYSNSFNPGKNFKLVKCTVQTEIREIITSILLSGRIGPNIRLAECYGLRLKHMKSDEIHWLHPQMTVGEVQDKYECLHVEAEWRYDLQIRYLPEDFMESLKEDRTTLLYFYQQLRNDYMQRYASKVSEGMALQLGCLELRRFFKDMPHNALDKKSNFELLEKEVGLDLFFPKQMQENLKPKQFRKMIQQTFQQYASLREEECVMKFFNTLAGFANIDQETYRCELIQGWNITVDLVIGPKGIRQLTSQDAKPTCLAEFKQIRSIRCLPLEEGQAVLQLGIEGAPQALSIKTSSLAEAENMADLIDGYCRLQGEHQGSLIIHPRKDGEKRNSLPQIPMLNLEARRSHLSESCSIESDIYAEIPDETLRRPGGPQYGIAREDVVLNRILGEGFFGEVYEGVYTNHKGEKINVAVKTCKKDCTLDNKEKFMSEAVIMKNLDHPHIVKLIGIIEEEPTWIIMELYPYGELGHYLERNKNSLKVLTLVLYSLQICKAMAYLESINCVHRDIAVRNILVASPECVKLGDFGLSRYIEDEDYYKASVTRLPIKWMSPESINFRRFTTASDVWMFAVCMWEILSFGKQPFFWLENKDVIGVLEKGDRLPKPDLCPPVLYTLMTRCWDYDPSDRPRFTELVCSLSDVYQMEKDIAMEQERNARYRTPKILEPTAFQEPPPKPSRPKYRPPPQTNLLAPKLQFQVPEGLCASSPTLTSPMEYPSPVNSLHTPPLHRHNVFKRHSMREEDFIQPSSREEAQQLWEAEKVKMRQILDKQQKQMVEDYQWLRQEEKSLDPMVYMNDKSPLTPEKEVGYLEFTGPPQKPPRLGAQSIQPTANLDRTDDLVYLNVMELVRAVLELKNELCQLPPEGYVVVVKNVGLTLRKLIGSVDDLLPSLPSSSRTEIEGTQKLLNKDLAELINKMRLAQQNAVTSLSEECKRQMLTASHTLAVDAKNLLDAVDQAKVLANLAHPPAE
UniProt Q00944: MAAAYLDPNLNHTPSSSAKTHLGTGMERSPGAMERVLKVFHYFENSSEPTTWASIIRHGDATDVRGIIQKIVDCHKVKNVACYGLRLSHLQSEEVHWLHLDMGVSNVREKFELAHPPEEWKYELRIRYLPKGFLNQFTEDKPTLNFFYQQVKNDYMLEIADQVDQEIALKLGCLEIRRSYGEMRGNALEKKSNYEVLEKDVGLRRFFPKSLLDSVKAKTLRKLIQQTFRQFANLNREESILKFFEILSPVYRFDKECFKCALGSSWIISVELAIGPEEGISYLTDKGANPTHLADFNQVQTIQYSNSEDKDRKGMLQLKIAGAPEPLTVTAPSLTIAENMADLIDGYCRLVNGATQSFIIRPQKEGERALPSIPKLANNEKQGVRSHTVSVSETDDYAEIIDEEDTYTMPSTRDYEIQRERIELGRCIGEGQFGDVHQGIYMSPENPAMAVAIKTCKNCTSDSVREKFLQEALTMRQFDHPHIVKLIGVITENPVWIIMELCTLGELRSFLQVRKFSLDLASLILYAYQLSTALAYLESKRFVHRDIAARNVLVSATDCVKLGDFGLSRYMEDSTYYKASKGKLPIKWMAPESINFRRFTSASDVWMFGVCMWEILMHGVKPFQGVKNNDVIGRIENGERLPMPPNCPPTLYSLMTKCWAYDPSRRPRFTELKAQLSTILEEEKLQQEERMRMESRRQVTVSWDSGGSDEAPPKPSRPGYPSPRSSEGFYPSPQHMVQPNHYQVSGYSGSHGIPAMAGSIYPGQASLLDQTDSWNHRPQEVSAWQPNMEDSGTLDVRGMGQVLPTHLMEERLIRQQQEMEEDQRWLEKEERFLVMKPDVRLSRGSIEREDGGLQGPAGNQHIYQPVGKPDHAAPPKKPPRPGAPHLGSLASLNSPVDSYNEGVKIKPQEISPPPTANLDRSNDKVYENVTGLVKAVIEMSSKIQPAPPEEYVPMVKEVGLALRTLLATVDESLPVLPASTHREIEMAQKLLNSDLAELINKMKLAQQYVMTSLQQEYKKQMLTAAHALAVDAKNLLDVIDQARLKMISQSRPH

These are yes or no findings as the source states them, for the method shown. In cells and extracts the contact can be indirect. Some binding calls cover weakened binding; strength is not graded here.

For “GFP-Pyk2 (wild type) (from UniProt Q14289 1-1009) (enzyme)”, the binding entry is given as “binds”.
As for “GFP-tagged focal adhesion kinase (FAK) (from UniProt Q00944 1-1053) (enzyme)”, the entry is “binds”.

For the origin of these results see paper PMC10609836.
